From patent US7629375B2, “Cytoprotective compounds, pharmaceutical and cosmetic formulations, and methods” (Johnson & Johnson Consumer Companies, Inc., priority 2001, dated 2009)
Some entries share one result that the patent states for a list of compounds. At least one structure is not confirmed: it was looked up by name or label, or the drawing left a doubt.

Key:
[1] = tested on: Male Wistar rats; experiment: Rat middle cerebral artery occlusion (MCAO) model of cerebral ischemia; format: in vivo; details: two hours MCAO; doses in the range of less than about 1 μg/kg to about 10 mg/kg
[2] = tested on: primary hippocampal neuronal cells; experiment: Hippocampal anoxia-reoxygenation cell death assay; format: cell-based, mouse; details: hypoxia 5 hr, reoxygenation 20-24 hr; at concentrations ranging from about 1 to 1000 μM

Row | SMILES | reduction in total infarct volume [1] | protection against stressor-induced cell death (% of the cells tested) [2]
1 | COC(=O)c1ccc(C=Cc2ccc(O)c(O)c2)cc1.[Cl-].[Cl-].[Zn+2] [4-[2-(phenyl-1,2-diol)vinyl]-benzoic acid methyl ester, zinc(II) chloride] | at least 20% | –
2 | COCOc1ccc(C=Cc2ccc(-c3ccccn3)nc2)cc1OCOC.[Cl-].[Cl-].[Zn+2] [5-[2-(3,4-bis-methoxymethoxy-phenyl)-vinyl]-[2,2′]bipyridinyl, Zn(II)chloride] | – | at least 20%
